PubChem BioAssay AID602441 (National Center for Advancing Translational Sciences (NCATS), 2012)
Hit rate of the full screen: of about 1,300 compounds, fewer than 10 were called active. Roughly 9% stayed inconclusive and do not appear here. The call rests on the fitted dose curve; in most records, active means well fitted curve in the direction sought with a large enough effect; inconclusive means small, poorly fitted or top-dose-only effect, or another doubt; inactive means no such curve, though single readings can be large or run the other way. Some of the results follow.

Experiment: qHTS for antagonists of the Thyroid Stimulation Hormone Receptor: Hit Validation in Parental Cell Line; further: 0% is about no effect
Details: parental HEK293 cells lacking TSHR, counter-screen; series mostly up to 56.9 µM; activity change, negative = inhibition: at the top concentration
Summary of the method: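 Counterscreen in untransfected parental HEK-EM 293 cells. Lysate cAMP displaces cAMP-d2 from cryptate-tagged anti-cAMP antibody, and homogeneous TR-FRET is read at 665 nm with 337 nm excitation after stimulation.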

Row | Compound | activity change, negative = inhibition
1 | O=c1[nH]c(-c2ccccc2F)nc2c1sc(=S)n2Cc1ccccc1 | inactive: -3.17%
2 | CCN(CC)c1ccc(C(=O)OCC(=O)N2CCCC2)cc1 | inactive: 2.27%
3 | CN(Cc1ccccc1)S(=O)(=O)c1ccc(OCC(=O)NCc2ccccn2)cc1 | inactive: -4.22%
4 | Cc1ccccc1N/C(SCc1ccc(Cl)cc1)=C(/C#N)C(=O)NCc1ccco1 | inactive: -5.16%
5 | COc1c(/C=C2\SC(=Nc3ccccc3Cl)NC2=O)cccc1[N+](=O)[O-] | inactive: 7.28%
6 | Cc1ccc(C(=O)N2c3ccccc3N(Cc3ccccc3)C(=O)C2(C)C)cc1 | inactive: -7.28%
7 | CCC(=O)OCCNc1cc(Sc2nccn2C)c2nonc2c1[N+](=O)[O-] | inactive: -3.45%
8 | C=CC(C)(C)c1c2occc2c(O)c2ccc(=O)oc12 | inactive: -4.53%
9 | CSC1=NSC2=NC(=O)/C(=C\c3coc4ccccc4c3=O)C(=N)N12 | inactive: -3.37%
10 | O=C1CCCC2=C1C(c1ccsc1)CC(=O)N2c1nnc(SCc2ccccc2)s1 (stereo unspecified) | inactive: 2.54%
11 | CSc1ccccc1OCc1cc(C(=O)NC2CCc3ccccc32)no1 (stereo unspecified) | inactive: -0.98%
12 | Cc1cc(Cl)c(S(=O)(=O)N2CCSCC2)cc1OCC(=O)NC1CCCCC1 | inactive: 0.373%
13 | O=C(Nc1ccc(S(=O)(=O)N2CCCCC2)cc1)c1ccc(CN2CCOCC2)cc1 | inactive: -0.684%
14 | O=C(Nc1nnc(S(=O)(=O)N2CCCCCC2)s1)c1cccc(Br)c1 | inactive: -5.41%
15 | CSCC[C@H](NC(=O)c1ccc(Cl)c(S(=O)(=O)N2CCCC2)c1)c1nc2ccccc2[nH]1 | inactive: 0.265%
16 | COc1ccc(/C=C2\CC/C(=C\c3ccc(OC)c(OC)c3)C2=O)cc1OC | inactive: -9.79%
17 | Cc1ccc(C)c(N2CCN(C(=O)CCCCCn3c(=S)[nH]c4ccc(N5CCOCC5)cc4c3=O)CC2)c1 | inactive: -7.35%
18 | O=S(=O)(/N=C(/Nc1cccc2ccccc12)c1ccccc1)c1cccs1 | inactive: 0.846%
19 | C(=N\N1CCN(Cc2cccc3ccccc23)CC1)/c1cccnc1 | inactive: -5.86%
20 | O=C(Nc1ccc([N+](=O)[O-])cc1Cl)c1cc(Cl)ccc1O | inactive: -8.6%
21 | O=c1c2nncn2c2cccnc2n1CCNc1ncc(C(F)(F)F)cc1Cl | inactive: 3.82%

Looked up above:
activity change, negative = inhibition with CSC1=NSC2=NC(=O)/C(=C\c3coc4ccccc4c3=O)C(=N)N12 reads inactive: -3.37%
activity change, negative = inhibition with COc1ccc(/C=C2\CC/C(=C\c3ccc(OC)c(OC)c3)C2=O)cc1OC reads inactive: -9.79%

Later entries:

Row | Compound | activity change, negative = inhibition
22 | Cc1ccc(Sc2ncccc2NC(=O)c2ccccc2Cl)cc1 | inactive: 3.7%
23 | CC1CC(=O)N(c2ccc(C(C)C)cc2)C(=O)C1 | inactive: 4.03%
24 | COc1ccc(NC(=O)Cn2nnc(C(=O)NCc3cccs3)c2N)c(OC)c1 | inactive: 4.02%
25 | CCCCn1c(-c2csc3c2CCCC3)n[nH]c1=S | inactive: -0.133%
26 | COC(=O)c1c(NC(NC(=O)CC(C)C)C(Cl)(Cl)Cl)sc2c1CCC2 (stereo unspecified) | inactive: 2.42%
27 | COC(=O)c1c(-c2ccc(SC)cc2)sc2ccccc12 | inactive: 4.49%
28 | Cc1cccc(NC(=O)CCN2CCN(C)CC2)c1 | inactive: 4.85%
29 | C=C(C)CNc1cc(S(=O)(=O)N2CCOCC2)ccc1Oc1ccccc1 | inactive: -7.9%
30 | Cc1cc(C(=O)CCl)c(C)n1CCc1ccccc1 | inactive: -5.16%
31 | CC1CCN(CCCNC(=O)CN2C(=O)CSc3ccc(S(=O)(=O)N4CCOCC4)cc32)CC1 | inactive: 2.26%
32 | O=C(Nc1ccn(Cc2ccccc2F)n1)c1ccc(COc2ccccc2Cl)cc1 | inactive: -9.46%
33 | COc1ccc(/C=C2/SC(=S)NC2=O)cc1OCc1ccccc1 | inactive: -11.5%
34 | CCc1ccc(NS(=O)(=O)c2cc3[nH]c(=O)c(=O)[nH]c3cc2C)cc1 | inactive: 5.97%
35 | CC(C)NC(=O)COc1coc(CN2CCN(c3ccccc3F)CC2)cc1=O | inactive: 0.894%
36 | COc1ccccc1NS(=O)(=O)c1cccc(NC(=O)c2ccc3ccccc3n2)c1 | inactive: -6.57%
37 | CCOc1ccc(Nc2nc(Cc3nnc(SCC(=O)c4ccc(C)cc4)o3)cs2)cc1 | inactive: 2.12%
38 | CCOC(=O)c1ccc(NC(=O)c2nc(S(=O)(=O)Cc3ccccc3)ncc2Cl)cc1 | inactive: 5.14%
39 | C=CCNc1ncnc2ccc(Br)cc12 | inactive: 2.74%
40 | O=C1NC(=S)S/C1=C\c1cc2ccccc2nc1N1CCCCC1 | inactive: 1.44%
41 | Cn1c(CNC(=O)c2ccc(Cl)cc2)nnc1SCC(=O)NC1CCCC1 | inactive: 1.09%
42 | CCOC(=O)c1c(NC(NC(=O)C(C)C)C(Cl)(Cl)Cl)sc2c1CCC2 (stereo unspecified) | inactive: 0.236%

Row | Compound | activity change, negative = inhibition
43 | CCOc1ccccc1NC(=O)C1(S(=O)(=O)c2ccc(Cl)cc2)CC1 | inactive: 4.72%
44 | COc1cc(OC)cc(-c2cc3cc4c(cc3cn2)OCO4)c1 | inactive: -3.04%
45 | Cc1ccccc1-n1sc2cc(F)ccc2c1=O | inactive: -7.14%
46 | CCOC(=O)Cn1c(=NC(=O)CSC(C)=O)sc2ccccc21 | inactive: -0.0178%
47 | COc1ccccc1CNS(=O)(=O)c1ccc(-n2cccn2)cc1 | inactive: 1.26%
48 | CC(C)c1ccccc1OCCNC(=O)c1cccnc1 | inactive: 1.83%
49 | CCOC(=O)N1CCN(C(=O)c2ccc3c(c2)N=C(CC)c2cc(C)ccc2S3)CC1 | inactive: 3.11%
50 | CCN(CC)S(=O)(=O)c1cccc(NC(=O)CCSc2ccc(Cl)cc2)c1 | inactive: -6.52%
51 | O=C1C=C(c2ccc(Cl)c(C(F)(F)F)c2)C[C@@H](c2ccc(Cl)cc2)C1 | inactive: 2.48%
52 | CC(=O)c1ccc(S(=O)(=O)N2CCN(CCOc3ccc(Br)cc3)CC2)cc1 | inactive: 1.93%
53 | COCCNc1cnn(-c2ccccc2)c(=O)c1Cl | inactive: 2.15%
54 | Clc1c(CSc2nc3ccccc3o2)nc2ccccn12 | inactive: 3.19%
55 | COC(=O)c1ccc(C2C(Oc3ccccc3C)C(=O)N2CCc2ccc(OC)c(OC)c2)cc1 (stereo unspecified) | inactive: -4.95%
56 | Nc1c(C(=O)NCc2ccc3c(c2)OCO3)nnn1CC(=O)Nc1ccc(Br)cc1 | inactive: 1.25%
57 | O=C(Nc1ccncc1)Nc1cc(Cl)ccc1Cl | inactive: -5.24%
58 | C/C(=N/OCO/N=C(/C)c1ccc(F)cc1)c1ccc(F)cc1 | inactive: 4.84%
59 | C=CCN(c1ccccc1)S(=O)(=O)c1ccc2[nH]cc(C(=O)NCCOC)c(=O)c2c1 | inactive: -2.5%
60 | O=C(CN1C(=O)NC2(CCCCCC2)C1=O)N1CCC(Cc2ccccc2)CC1 | inactive: 1.22%
61 | COc1ccc(NC(=O)/C(Cl)=C(/Cl)S(=O)Cc2ccccc2Cl)cn1 (stereo unspecified) | inactive: -8.16%
